Taken from: PubChem BioAssay AID1224830 (NIAID, 2016)
Shown is an unselected part of about 18,000 reagents. About 2,900 of all reagents (16%) were called active. 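Calls are made per well; low scores hint the gene aids the LPS response, high scores that it dampens it.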 Repeated entries: four replicate wells of each siRNA pool. No sequences are given here.

Screen: 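Regulators of TLR4 signalling towards TNF-alpha in macrophage-like cells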 (primary screen)
System: human THP-1 monocytic leukaemia cells, TNF dual-luciferase reporter clone, PMA-differentiated to macrophage-like cells
Reagents: siRNA pool against human genes, 50 nM
Time to read-out: LPS for 4 h, given about 3 days after siRNA transfection
Treatment: bacterial LPS (TLR4 ligand), 10 ng/ml
Measured: 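TNF firefly reporter luminescence divided by renilla, normalised to the plate median, then turned into a robust z-score for each replicate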
Scale: TNF reporter robust z-score: higher = stronger TNF reporter response to LPS
Rule for the call: 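a well is active when its z-score exceeds 2.8 or falls below -1.5; control wells carry no call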

Against CPA3, the values are TNF reporter robust z-score 1.08; inactive.
CPA3 scored TNF reporter robust z-score 3.3; active.
Against CPA3 the deposit lists TNF reporter robust z-score 7.47; active.
For CPA3, the entry reads TNF reporter robust z-score 1.37; inactive.
BCL11B gave TNF reporter robust z-score -1.02; inactive.
For BCL11B, the values are TNF reporter robust z-score -1.07; inactive.
Depletion of BCL11B resulted in: TNF reporter robust z-score -0.11; inactive.
With knock-down of BCL11B, the screen gave TNF reporter robust z-score -0.87; inactive.
Silencing of IFNGR1 came out at: TNF reporter robust z-score -0.64; inactive.
After knock-down of IFNGR1 the results were TNF reporter robust z-score -0.17; inactive.
Against IFNGR1 the deposit lists TNF reporter robust z-score 0.66; inactive.
Depletion of IFNGR1 came out at: TNF reporter robust z-score 1.89; inactive.
GOLIM4 showed TNF reporter robust z-score 0.14; inactive.
With knock-down of GOLIM4, the screen gave TNF reporter robust z-score -0.13; inactive.
GOLIM4 showed TNF reporter robust z-score 0.45; inactive.
For GOLIM4 the deposit lists TNF reporter robust z-score -0.18; inactive.
DAW1 scored TNF reporter robust z-score 0.77; inactive.
For DAW1, the entry reads TNF reporter robust z-score 2.21; inactive.
Against DAW1 the deposit lists TNF reporter robust z-score 1.05; inactive.
For DAW1, the values are TNF reporter robust z-score 1.86; inactive.
Silencing of TM4SF20 gave: TNF reporter robust z-score -0.4; inactive.
With knock-down of TM4SF20, the record shows TNF reporter robust z-score 1.26; inactive.
TM4SF20 showed TNF reporter robust z-score -0.81; inactive.
For TM4SF20, the entry reads TNF reporter robust z-score -0.95; inactive.
For SPARC, the entry reads TNF reporter robust z-score 1.35; inactive.
Against SPARC, the values are TNF reporter robust z-score 0.7; inactive.
Against SPARC the deposit lists TNF reporter robust z-score 0.32; inactive.
With knock-down of SPARC, the record shows TNF reporter robust z-score 1.89; inactive.
Knock-down of SIPA1L1 resulted in: TNF reporter robust z-score -0.53; inactive.
With knock-down of SIPA1L1, the screen gave TNF reporter robust z-score -0.21; inactive.
After knock-down of SIPA1L1 the results were TNF reporter robust z-score -0.92; inactive.
SIPA1L1 gave TNF reporter robust z-score -0.97; inactive.

Next entries:
Against PSAT1 the deposit lists TNF reporter robust z-score -0.95; inactive.
Depletion of PSAT1 resulted in: TNF reporter robust z-score -0.18; inactive.
Depletion of PSAT1 resulted in: TNF reporter robust z-score -0.22; inactive.
For PSAT1 the deposit lists TNF reporter robust z-score 0.89; inactive.
After knock-down of CHIA, the screen gave TNF reporter robust z-score -0.87; inactive.
After knock-down of CHIA, the record shows TNF reporter robust z-score 0.98; inactive.
CHIA showed TNF reporter robust z-score -0.15; inactive.
With knock-down of CHIA the results were TNF reporter robust z-score 0.35; inactive.
For TOX the deposit lists TNF reporter robust z-score 0.5; inactive.
TOX scored TNF reporter robust z-score 0.16; inactive.
TOX gave TNF reporter robust z-score -0.44; inactive.
TOX gave TNF reporter robust z-score 0.47; inactive.
With knock-down of TGIF1, the record shows TNF reporter robust z-score 0.45; inactive.
TGIF1 showed TNF reporter robust z-score 0.44; inactive.
After knock-down of TGIF1 the results were TNF reporter robust z-score -0.27; inactive.
TGIF1 showed TNF reporter robust z-score 1.57; inactive.
